From paper PMC7909667
Results are given in words; binding and its absence hold for the method and conditions named. In cells and extracts the contact can be indirect. Some binding calls cover weakened binding; strength is not graded here. Sequences can lack the tags named with a protein. One block for each binder: values may come before it.

Sequences of proteins named here, by UniProt entry; tags and fusion partners are left off. Residues count along the entry.
UniProt Q9UKV5: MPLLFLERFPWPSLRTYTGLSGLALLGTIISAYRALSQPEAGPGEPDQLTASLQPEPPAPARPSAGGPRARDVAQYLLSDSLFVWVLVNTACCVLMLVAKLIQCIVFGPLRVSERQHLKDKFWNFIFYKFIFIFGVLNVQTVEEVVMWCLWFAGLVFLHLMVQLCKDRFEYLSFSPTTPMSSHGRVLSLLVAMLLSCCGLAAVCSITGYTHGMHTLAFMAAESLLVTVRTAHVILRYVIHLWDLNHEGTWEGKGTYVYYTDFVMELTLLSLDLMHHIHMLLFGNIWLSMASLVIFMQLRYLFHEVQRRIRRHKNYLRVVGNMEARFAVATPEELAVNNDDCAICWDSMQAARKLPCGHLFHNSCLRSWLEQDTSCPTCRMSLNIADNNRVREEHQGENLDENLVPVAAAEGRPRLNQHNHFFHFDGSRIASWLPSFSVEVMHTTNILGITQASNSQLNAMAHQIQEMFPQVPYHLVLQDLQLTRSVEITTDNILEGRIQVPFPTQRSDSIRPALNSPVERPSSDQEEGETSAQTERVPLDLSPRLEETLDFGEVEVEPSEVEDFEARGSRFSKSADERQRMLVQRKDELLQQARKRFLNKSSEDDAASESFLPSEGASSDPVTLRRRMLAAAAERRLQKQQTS
UniProt P04114, residues 28-4563: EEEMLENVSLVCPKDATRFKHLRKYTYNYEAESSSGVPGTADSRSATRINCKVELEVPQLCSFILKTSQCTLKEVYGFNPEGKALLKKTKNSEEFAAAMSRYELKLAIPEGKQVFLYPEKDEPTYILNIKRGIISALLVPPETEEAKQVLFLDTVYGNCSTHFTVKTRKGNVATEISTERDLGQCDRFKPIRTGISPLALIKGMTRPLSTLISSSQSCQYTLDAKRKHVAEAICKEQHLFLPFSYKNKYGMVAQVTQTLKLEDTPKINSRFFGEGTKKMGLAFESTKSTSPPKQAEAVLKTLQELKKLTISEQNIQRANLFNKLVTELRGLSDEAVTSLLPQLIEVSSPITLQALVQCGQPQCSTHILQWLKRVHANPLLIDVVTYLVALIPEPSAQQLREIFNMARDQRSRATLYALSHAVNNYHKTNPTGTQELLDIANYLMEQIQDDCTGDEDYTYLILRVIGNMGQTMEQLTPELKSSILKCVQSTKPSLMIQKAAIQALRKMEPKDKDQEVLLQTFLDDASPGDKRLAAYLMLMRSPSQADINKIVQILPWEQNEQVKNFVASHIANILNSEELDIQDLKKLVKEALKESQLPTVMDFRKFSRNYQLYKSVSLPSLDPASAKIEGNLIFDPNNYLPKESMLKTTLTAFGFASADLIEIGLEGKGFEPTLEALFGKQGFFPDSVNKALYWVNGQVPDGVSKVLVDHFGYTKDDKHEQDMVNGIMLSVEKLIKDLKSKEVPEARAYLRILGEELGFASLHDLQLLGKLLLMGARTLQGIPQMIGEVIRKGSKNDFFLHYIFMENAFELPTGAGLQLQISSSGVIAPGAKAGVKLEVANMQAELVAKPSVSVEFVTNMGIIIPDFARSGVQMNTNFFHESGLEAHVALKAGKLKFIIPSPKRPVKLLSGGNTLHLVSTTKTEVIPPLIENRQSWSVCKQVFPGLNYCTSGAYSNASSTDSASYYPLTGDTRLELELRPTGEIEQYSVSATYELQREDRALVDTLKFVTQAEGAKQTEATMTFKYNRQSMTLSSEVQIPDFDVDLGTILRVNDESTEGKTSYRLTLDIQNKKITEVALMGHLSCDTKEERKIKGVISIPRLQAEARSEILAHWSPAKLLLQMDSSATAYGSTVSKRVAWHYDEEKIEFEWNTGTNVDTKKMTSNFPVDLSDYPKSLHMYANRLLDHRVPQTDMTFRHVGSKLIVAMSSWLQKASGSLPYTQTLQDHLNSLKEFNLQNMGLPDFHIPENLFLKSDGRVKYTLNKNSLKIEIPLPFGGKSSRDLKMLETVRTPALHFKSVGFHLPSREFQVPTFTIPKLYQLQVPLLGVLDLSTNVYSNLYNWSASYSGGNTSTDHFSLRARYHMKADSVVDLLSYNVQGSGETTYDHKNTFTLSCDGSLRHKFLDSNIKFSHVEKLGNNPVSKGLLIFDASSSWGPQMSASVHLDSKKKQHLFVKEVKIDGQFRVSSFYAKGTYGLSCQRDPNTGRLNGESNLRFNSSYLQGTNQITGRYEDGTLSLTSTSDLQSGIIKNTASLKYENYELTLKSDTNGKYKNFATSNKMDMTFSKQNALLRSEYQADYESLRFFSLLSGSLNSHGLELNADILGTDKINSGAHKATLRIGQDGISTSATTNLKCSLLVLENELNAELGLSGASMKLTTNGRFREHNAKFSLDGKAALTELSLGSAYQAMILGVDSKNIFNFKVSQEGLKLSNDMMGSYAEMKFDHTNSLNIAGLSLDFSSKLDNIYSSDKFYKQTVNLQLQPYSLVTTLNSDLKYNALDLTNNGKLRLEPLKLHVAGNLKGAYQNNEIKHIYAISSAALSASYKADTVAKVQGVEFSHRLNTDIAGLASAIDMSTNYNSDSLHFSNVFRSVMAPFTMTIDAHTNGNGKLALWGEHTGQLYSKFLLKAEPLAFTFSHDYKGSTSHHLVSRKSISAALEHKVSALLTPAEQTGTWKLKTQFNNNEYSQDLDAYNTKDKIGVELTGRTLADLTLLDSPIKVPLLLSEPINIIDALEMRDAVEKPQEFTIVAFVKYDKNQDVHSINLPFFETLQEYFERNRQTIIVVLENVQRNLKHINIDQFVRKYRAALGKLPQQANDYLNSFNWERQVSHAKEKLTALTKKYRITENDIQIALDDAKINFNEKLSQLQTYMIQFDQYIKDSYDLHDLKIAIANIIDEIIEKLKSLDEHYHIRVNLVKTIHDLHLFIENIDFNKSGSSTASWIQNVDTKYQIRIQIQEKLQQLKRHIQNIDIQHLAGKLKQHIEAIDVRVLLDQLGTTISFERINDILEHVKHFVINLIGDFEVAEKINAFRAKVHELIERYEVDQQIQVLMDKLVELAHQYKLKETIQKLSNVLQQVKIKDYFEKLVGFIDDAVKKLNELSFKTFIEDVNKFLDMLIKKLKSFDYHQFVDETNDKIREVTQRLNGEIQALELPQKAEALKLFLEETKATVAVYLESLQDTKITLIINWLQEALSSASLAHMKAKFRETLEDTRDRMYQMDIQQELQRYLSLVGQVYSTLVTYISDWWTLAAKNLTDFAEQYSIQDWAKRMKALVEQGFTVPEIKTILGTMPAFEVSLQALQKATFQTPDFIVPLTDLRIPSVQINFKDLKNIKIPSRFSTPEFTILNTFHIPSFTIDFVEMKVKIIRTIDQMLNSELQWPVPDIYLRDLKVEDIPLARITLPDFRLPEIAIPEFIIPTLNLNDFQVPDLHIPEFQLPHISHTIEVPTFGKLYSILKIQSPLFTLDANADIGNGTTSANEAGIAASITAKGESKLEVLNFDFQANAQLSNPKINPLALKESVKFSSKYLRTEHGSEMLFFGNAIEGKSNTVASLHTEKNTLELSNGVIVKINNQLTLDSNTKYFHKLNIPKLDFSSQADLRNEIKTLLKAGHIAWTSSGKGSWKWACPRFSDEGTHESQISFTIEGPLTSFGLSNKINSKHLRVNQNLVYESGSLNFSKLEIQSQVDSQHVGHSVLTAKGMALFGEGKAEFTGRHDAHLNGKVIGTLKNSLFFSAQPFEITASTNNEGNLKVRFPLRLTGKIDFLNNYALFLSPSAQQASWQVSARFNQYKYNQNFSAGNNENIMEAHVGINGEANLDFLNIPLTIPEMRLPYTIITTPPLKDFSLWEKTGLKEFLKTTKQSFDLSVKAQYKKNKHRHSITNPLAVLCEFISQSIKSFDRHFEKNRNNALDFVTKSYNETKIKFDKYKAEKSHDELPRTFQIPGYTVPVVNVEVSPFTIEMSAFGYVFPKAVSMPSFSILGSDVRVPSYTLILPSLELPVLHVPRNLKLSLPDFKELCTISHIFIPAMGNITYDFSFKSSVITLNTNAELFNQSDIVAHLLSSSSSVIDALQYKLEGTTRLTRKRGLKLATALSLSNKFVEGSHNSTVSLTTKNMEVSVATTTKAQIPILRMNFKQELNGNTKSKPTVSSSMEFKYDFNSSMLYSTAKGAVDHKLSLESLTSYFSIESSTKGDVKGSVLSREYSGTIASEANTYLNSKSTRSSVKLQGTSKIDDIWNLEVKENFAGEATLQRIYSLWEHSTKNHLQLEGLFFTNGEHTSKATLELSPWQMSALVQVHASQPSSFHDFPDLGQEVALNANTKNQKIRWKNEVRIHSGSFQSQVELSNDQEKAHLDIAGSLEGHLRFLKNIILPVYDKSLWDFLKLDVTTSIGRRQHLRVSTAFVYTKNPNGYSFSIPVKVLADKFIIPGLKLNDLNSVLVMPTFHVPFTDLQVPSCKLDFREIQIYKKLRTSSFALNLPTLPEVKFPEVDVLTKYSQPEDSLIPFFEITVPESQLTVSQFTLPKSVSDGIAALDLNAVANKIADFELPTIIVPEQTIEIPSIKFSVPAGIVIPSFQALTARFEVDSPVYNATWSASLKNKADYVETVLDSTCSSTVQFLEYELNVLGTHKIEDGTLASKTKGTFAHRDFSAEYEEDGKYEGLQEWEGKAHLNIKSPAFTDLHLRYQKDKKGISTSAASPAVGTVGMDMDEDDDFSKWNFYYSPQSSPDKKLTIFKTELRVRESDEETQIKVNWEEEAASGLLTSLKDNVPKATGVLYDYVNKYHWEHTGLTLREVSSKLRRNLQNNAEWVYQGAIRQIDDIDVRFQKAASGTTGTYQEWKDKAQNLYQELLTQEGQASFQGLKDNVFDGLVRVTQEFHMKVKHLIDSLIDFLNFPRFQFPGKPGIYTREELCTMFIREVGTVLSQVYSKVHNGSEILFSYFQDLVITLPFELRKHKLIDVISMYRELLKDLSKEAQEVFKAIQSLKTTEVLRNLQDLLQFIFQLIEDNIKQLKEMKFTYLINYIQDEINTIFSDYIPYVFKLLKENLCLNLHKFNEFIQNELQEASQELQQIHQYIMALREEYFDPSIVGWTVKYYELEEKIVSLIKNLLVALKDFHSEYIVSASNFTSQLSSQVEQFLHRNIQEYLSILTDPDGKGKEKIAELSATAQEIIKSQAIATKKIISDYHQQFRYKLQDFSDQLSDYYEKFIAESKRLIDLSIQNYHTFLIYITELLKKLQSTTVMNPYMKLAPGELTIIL

What was measured:
[1] = target: T1, liver-specific zona pellucida domain-containing protein (LZP), endogenous, mouse hepatocytes (mouse (endogenous in mouse hepatocytes)) (UniProt Q8R4V5); test: co-IP; co-immunoprecipitation of LZP with apoB, MTTP or BIP in hepatocytes isolated from WT mice
T1 sequence: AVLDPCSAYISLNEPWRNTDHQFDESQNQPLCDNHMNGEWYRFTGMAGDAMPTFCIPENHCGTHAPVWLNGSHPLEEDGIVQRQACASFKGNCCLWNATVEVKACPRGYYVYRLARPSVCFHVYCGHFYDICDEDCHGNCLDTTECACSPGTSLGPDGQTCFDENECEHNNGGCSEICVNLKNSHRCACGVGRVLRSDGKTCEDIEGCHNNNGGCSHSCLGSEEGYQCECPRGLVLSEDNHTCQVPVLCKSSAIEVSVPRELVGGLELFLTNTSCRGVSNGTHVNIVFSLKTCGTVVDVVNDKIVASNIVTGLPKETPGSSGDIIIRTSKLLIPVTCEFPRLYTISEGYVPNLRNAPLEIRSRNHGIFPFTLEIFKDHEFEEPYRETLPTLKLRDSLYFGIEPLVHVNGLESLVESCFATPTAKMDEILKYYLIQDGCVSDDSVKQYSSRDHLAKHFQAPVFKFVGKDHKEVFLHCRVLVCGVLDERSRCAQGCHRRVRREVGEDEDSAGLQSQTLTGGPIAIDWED

[2] = target: apolipoprotein B (apoB), endogenous, mouse hepatocytes or liver (mouse (endogenous in mouse hepatocytes)) (UniProt E9Q414); test: co-IP; reciprocal co-immunoprecipitation of ectopic LZP and apoB in mouse hepatocytes and in HepG2 cells overexpressing LZP
[3] = target: AMFR (E3 ligase gp78), ectopic, in HepG2 cells (UniProt Q9UKV5); test: co-IP; reciprocal co-immunoprecipitation with indicated antibodies in HepG2 cells ectopically expressing AMFR and LZP
[4] = target: apolipoprotein B (apoB), endogenous, HepG2 cells (human (endogenous in HepG2)) (UniProt P04114); test: co-IP; reciprocal co-immunoprecipitation of ectopic LZP and apoB in mouse hepatocytes and in HepG2 cells overexpressing LZP

binding [1]: binds
B1: microsomal triglyceride transfer protein (MTTP), mouse hepatocytes (protein, UniProt O08601 22-894)
chain: HTTGLSLNNERLYKLTYSTEVFLDGGKGKPQDSVGYKISSDVDVVLLWRNPDGDDDQVIQVTITAVNVENAGQQRGEKSIFQGKSTPKIIGKDNLEALQRPMLLHLVRGKVKEFYSYENEPVGIENLKRGLASLFQMQLSSGTTNEVDISGDCKVTYQAQQDKVVKIKALDTCKIERSGFTTANQVLGVSSKATSVTTYKIEDSFVTAVLAEETRAFALNFQQTIAGKIVSKQKLELKTTEAGPRMIPGKQVAGVIKAVDSKYKAIPIVGQVLERVCKGCPSLAEHWKSIRKNLEPENLSKAEAVQSFLAFIQHLRTSRREEILQILKAEKKEVLPQLVDAVTSAQTPDSLEAILDFLDFKSDSSIILQERFLYACGFATHPDEELLRALLSKFKGSFASNDIRESVMIIIGALVRKLCQNEGCKLKAVVEAKKLILGGLEKPEKKEDTTMYLLALKNALLPEGIPLLLKYAEAGEGPVSHLATTVLQRYDVSFITDEVKKTLNRIYHQNRKVHEKTVRTTAAAVILKNPSYMDVKNILLSIGELPKEMNKYMLTVVQDILHFEMPASKMIRRVLKEMAVHNYDRFSKSGSSSAYTGYVERSPRAASTYSLDILYSGSGILRRSNLNIFQYIGKAELHGSQVVIEAQGLEGLIAATPDEGEENLDSYAGMSAILFDVQLRPVTFFNGYSDLMSKMLSASGDPVSVVKGLILLIDHSQDIQLQSGLKANMEIQGGLAIDISGSMEFSLWYRESKTRVKNRVAVVITSDVTVDASFVKAGVESRAETEAGLEFISTVQFSQYPFLVCMQMDKAEAPLRQFETKYERLSTGRGYVSRRRKESLVAGCELPLHQENSEMCNVVFPPQPESDNSGGWF

binding [2]: binds
B2: liver-specific zona pellucida domain-containing protein (LZP), ectopic, in mouse hepatocytes (protein, UniProt Q8R4V5 20-546)
chain: T1 sequence

binding [3]: binds
binding [4]: binds
B3: liver-specific zona pellucida domain-containing protein (LZP), ectopic, in HepG2 cells (protein, UniProt Q8WWZ8 23-545)
chain: DPCSAYISLNEPWRNTDHQLDESQGPPLCDNHVNGEWYHFTGMAGDAMPTFCIPENHCGTHAPVWLNGSHPLEGDGIVQRQACASFNGNCCLWNTTVEVKACPGGYYVYRLTKPSVCFHVYCGHFYDICDEDCHGSCSDTSECTCAPGTVLGPDRQTCFDENECEQNNGGCSEICVNLKNSYRCECGVGRVLRSDGKTCEDVEGCHNNNGGCSHSCLGSEKGYQCECPRGLVLSEDNHTCQVPVLCKSNAIEVNIPRELVGGLELFLTNTSCRGVSNGTHVNILFSLKTCGTVVDVVNDKIVASNLVTGLPKQTPGSSGDFIIRTSKLLIPVTCEFPRLYTISEGYVPNLRNSPLEIMSRNHGIFPFTLEIFKDNEFEEPYREALPTLKLRDSLYFGIEPVVHVSGLESLVESCFATPTSKIDEVLKYYLIRDGCVSDDSVKQYTSRDHLAKHFQVPVFKFVGKDHKEVFLHCRVLVCGVLDERSRCAQGCHRRMRRGAGGEDSAGLQGQTLTGGPIRIDWED
